From paper PMC2911433

Sequences of proteins named here, by UniProt entry; tags and fusion partners are left off. A change or cut given only in a name is not applied to a line headed by its entry.
UniProt Q8DP99: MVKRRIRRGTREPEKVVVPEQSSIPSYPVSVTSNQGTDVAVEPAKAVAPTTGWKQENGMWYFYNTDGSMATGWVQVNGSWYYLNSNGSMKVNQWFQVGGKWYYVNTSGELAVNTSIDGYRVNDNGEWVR

Assays:
[1] = biological target: T1, C-reactive protein (UniProt P02741); assay: ELISA; dose-response: same solid-phase protocol, 1 μg mammalian protein coated, increasing quantities of His-tagged pneumococcal protein from 0.8 to 200 pmoles per well; BSA as control; both purified
T1 sequence: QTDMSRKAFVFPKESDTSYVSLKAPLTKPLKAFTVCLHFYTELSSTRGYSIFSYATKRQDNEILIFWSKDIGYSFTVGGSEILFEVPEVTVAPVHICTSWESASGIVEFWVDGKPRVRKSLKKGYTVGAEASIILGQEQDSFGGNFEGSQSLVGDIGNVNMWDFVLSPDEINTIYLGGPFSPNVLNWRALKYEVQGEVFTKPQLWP

[2] = biological target: T1, C-reactive protein; assay: ELISA; solid-phase screen: 1 μg mammalian protein in 100 μL PBS pH7.0 coated on white 96 well plates overnight at 4°C; saturation 1 h with PBS 2% BSA; 200 pmole His-Tagged pneumococcal protein in 100 μL PBS for two hours at room temperature; washes PBS, Tween 0,03%; anti His-HRP antibody, ECL luminescence; positive = twice the BSA negative control in the majority of at least 3 independent experiments; both purified

CbpL
binding [1]: binds | binding [2]: binds

CbpM (from UniProt Q8DP99)
binding [1]: binds | binding [2]: binds

These are yes or no findings as the source states them, for the method shown. A result given as binding can be weak or reduced; the word gives no strength.
